From paper PMC9246188
Results are given in words; binding and its absence hold for the method and conditions named. Binding seen in cells or lysates may run through a third protein. These calls come from enrichment with a bait or labelling near it, and not all partners need be listed.

B1: Vat1L (protein, UniProt Q80TB8 1-417)
chain: MAKEGVEKAEETEQMIEKETSKEPAEGGDGSHRLGDAQEMRAVVLAGFGGLNKLRLSRKAMPEPQDGELKIRVKACGLNFIDLMVRQGNIDNPPKTPLVPGFECSGIVEALGDSVKGYEIGDRVMAFVNYNAWAEVVCTPVEFVYKIPDDMSFSEAAAFPMNFVTAYTMLFEIANLREGMSVLVHSAGGGVGQAVAQLCSTVPNVTVFGTASTFKHEAIKDSVTHLFDRNADYVQEVKRISAEGVDIVLDCLCGDNTGKGLSLLKPLGTYILYGSSNMVTGETKSFFSFAKSWWQVEKVNPIKLYEENKVIAGFSLLNLLFKQGRSGLIRGVVEKLIGLYNQKKIKPVVDSLWALEEVKEAMQRIHDRGNIGKLILDVEKTPTPLMANDSTETSEAGEEEEDHEGDSENKERMPFIQ
B2: α-internexin (protein, UniProt P46660 1-501)
chain: MSFGSEHYLCSASSYRKVFGDSSRLSARLSGPGGSGSFRSQSLSRSNVASTAACSSASSLGLGLAYRRLPASDGLDLSQAAARTNEYKIIRTNEKEQLQGLNDRFAVFIEKVHQLETQNRALEAELAALRQRHAEPSRVGELFQRELRELRAQLEEASSARAQALLERDGLAEEVQRLRARCEEESRGREGAERALKAQQRDVDGATLARLDLEKKVESLLDELAFVRQVHDEEVAELLATLQASSQAAAEVDVAVAKPDLTSALREIRAQYESLAAKNLQSAEEWYKSKFANLNEQAARSTEAIRASREEIHEYRRQLQARTIEIEGLRGANESLERQILELEERHSAEVAGYQDSIGQLESDLRNTKSEMARHLREYQDLLNVKMALDIEIAAYRKLLEGEETRFSTGGLSISGLNPLPNPSYLLPPRILSSTASKVSSAGLSLKKEEEEEEEEASKEVSKKTSKVGEGFEETLGEAVISTKKTGKSATEESTSSSQKM
B3: Cct8 (protein, UniProt P42932 1-548)
chain: MALHVPKAPGFAQMLKDGAKHFSGLEEAVYRNIQACKELAQTTRTAYGPNGMNKMVINRLEKLFVTNDAATILRELEVQHPAAKMIVMASHMQEQEVGDGTNFVLVFAGALLELAEELLRIGLSVSEVISGYEIACKKAHEILPELVCCSAKNLRDVDEVSSLLRTSIMSKQYGSETFLAKLIAQACVSIFPDSGNFNVDNIRVCKILGSGIYSSSVLHGMVFKKETEGDVTSVKDAKIAVYSCPFDGMITETKGTVLIKTAEELMNFSKGEENLMDAQVKAIAGTGANVIVTGGKVADIALHYANKYNIMLVRLNSKWDLRRLCKTVGATALPKLTPPVQEEMGHCDSVYLSEVGDTQVVVFKHEKEDGAISTIVLRGSTDNLMDDIERAVDDGVNTFKVLTRDKRLVPGGGATEIELAKQITSYGETCPGLEQYAIKKFAEAFEAIPRALAENSGVKANEVISKLYSVHQEGNKNVGLDIEAEVPAVKDMLEASILDTYLGKYWAIKLATNAAVTVLRVDQIIMAKPAGGPKPPSGKKDWDDDQND
B4: Rtn4/Nogo-A (protein, UniProt Q99P72-2 1-1162)
chain: MEDIDQSSLVSSSADSPPRPPPAFKYQFVTEPEDEEDEEDEEEEEDDEDLEELEVLERKPAAGLSAAPVPPAAAPLLDFSSDSVPPAPRGPLPAAPPTAPERQPSWERSPAASAPSLPPAAAVLPSKLPEDDEPPARPPAPAGASPLAEPAAPPSTPAAPKRRGSGSVDETLFALPAASEPVIPSSAEKIMDLKEQPGNTVSSGQEDFPSVLFETAASLPSLSPLSTVSFKEHGYLGNLSAVASTEGTIEETLNEASRELPERATNPFVNRESAEFSVLEYSEMGSSFNGSPKGESAMLVENTKEEVIVRSKDKEDLVCSAALHNPQESPATLTKVVKEDGVMSPEKTMDIFNEMKMSVVAPVREEYADFKPFEQAWEVKDTYEGSRDVLAARANMESKVDKKCFEDSLEQKGHGKDSESRNENASFPRTPELVKDGSRAYITCDSFSSATESTAANIFPVLEDHTSENKTDEKKIEERKAQIITEKTSPKTSNPFLVAIHDSEADYVTTDNLSKVTEAVVATMPEGLTPDLVQEACESELNEATGTKIAYETKVDLVQTSEAIQESIYPTAQLCPSFEEAEATPSPVLPDIVMEAPLNSLLPSTGASVAQPSASPLEVPSPVSYDGIKLEPENPPPYEEAMSVALKTSDSKEEIKEPESFNAAAQEAEAPYISIACDLIKETKLSTEPSPEFSNYSEIAKFEKSVPDHCELVDDSSPESEPVDLFSDDSIPEVPQTQEEAVMLMKESLTEVSETVTQHKHKERLSASPQEVGKPYLESFQPNLHITKDAASNEIPTLTKKETISLQMEEFNTAIYSNDDLLSSKEDKMKESETFSDSSPIEIIDEFPTFVSAKDDSPKEYTDLEVSNKSEIANVQSGANSLPCSELPCDLSFKNTYPKDEAHVSDEFSKSRSSVSKVPLLLPNVSALESQIEMGNIVKPKVLTKEAEEKLPSDTEKEDRSLTAVLSAELNKTSVVDLLYWRDIKKTGVVFGASLFLLLSLTVFSIVSVTAYIALALLSVTISFRIYKGVIQAIQKSDEGHPFRAYLESEVAISEELVQKYSNSALGHVNSTIKELRRLFLVDDLVDSLKFAVLMWVFTYVGALFNGLTLLILALISLFSIPVIYERHQAQIDHYLGLANKSVKDAMAKIQAKIPGLKRKAE
B5: Stathmin2 (protein, UniProt P55821 1-179)
chain: MAKTAMAYKEKMKELSMLSLICSCFYPEPRNINIYTYDDMEVKQINKRASGQAFELILKPPSPISEAPRTLASPKKKDLSLEEIQKKLEAAEERRKSQEAQVLKQLAEKREHEREVLQKALEENNNFSKMAEEKLILKMEQIKENREANLAAIIERLQEKERHAAEVRRNKELQVELSG

Target: Pants-V5-TurboID fusion protein (Plasticity-Associated Neural Transcript Short, Pants) (mouse (endogenous in Neuro2A))
Assay: proximity labelling; Pants-V5-TurboID from the endogenous locus in Neuro2a cells; 50 uM biotin for 18 hours; lysis in RIPA buffer; streptavidin beads; on-bead trypsinization; LC-MS; compared with N2a controls (n = 5 each)

Row | binding | Binder
1 | binds | B1
2 | binds | B2
3 | binds | B3
4 | binds | B4
5 | binds | B5

Target: Pants-V5-TurboID fusion protein (Plasticity-Associated Neural Transcript Short, Pants) (mouse (endogenous in Neuro2A))
Assay: proximity labelling; separate clonal Pants-Turbo transgenic cell line; biotin labelling; streptavidin capture, elution by boiling in SDS sample buffer with DTT and biotin; Western blot with commercial antibodies to selected hits; N2A controls

Row | binding | Binder
6 | binds | B3
7 | binds | B4
